PubChem BioAssay AID1259254 – NCATS | 2017
The whole screen tested about 59,000 reagents; this is a part drawn at random. In the full data, about 1,550 (2.6%) got an active call. 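G2 share is only a proxy for re-replication; each gene was hit by three separate siRNAs, and active genes were retested.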 The numbers tell different reagents against one gene apart. Not all columns of the deposit are shown. No sequences are given here. Not given: the amount of reagent.

Test: 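Finding genes that stop cells copying their DNA twice in one cycle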 (primary screen)
Cells: human HCT116 colorectal cancer cells
Knock-down reagent: single siRNA against human genes
Time to read-out: 3 days
Detection: 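Imaged Hoechst DNA stain sorts each cell into a cycle phase by DNA amount; per plate, G2 fraction set to 0% for non-targeting and 100% for GMNN siRNA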
Scale: G2 robust z-score and G2 cells, % of GMNN control: higher = more G2 cells, more excess DNA replication
Active means: 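An siRNA counts as active if its G2 robust z-score lies at least 5 MADs above the screen median; here such calls match roughly 38% of GMNN control or more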

After knock-down of VGLL3 (vestigial like family member 3) #1, the screen gave G2 robust z-score -0.886; G2 cells, % of GMNN control -3.26; inactive.
VGLL3 (vestigial like family member 3) #2 scored G2 robust z-score 1.08; G2 cells, % of GMNN control 10.6; inactive.
VGLL3 (vestigial like family member 3) #3 scored G2 robust z-score 4.01; G2 cells, % of GMNN control 31.2; inactive.
With knock-down of ATP6V1H (ATPase H+ transporting V1 subunit H) #1, the record shows G2 robust z-score -0.283; G2 cells, % of GMNN control 0.979; inactive.
ATP6V1H (ATPase H+ transporting V1 subunit H) #2 showed G2 robust z-score -0.419; G2 cells, % of GMNN control 0.0199; inactive.
For ATP6V1H (ATPase H+ transporting V1 subunit H) #3, the values are G2 robust z-score -0.342; G2 cells, % of GMNN control 0.561; inactive.
TRAPPC12 (trafficking protein particle complex subunit 12) #1 gave G2 robust z-score -1.48; G2 cells, % of GMNN control -7.42; inactive.
With knock-down of TRAPPC12 (trafficking protein particle complex subunit 12) #2 the results were G2 robust z-score 0.459; G2 cells, % of GMNN control 6.2; inactive.
With knock-down of TRAPPC12 (trafficking protein particle complex subunit 12) #3, the record shows G2 robust z-score -0.53; G2 cells, % of GMNN control -0.762; inactive.
Against FBXO8 (F-box protein 8) #1, the entry reads G2 robust z-score -0.923; G2 cells, % of GMNN control -3.52; inactive.
With knock-down of FBXO8 (F-box protein 8) #2, the record shows G2 robust z-score 0.0522; G2 cells, % of GMNN control 3.33; inactive.
Knock-down of FBXO8 (F-box protein 8) #3 gave: G2 robust z-score -0.586; G2 cells, % of GMNN control -1.16; inactive.
Against OR5B2 (olfactory receptor family 5 subfamily B member 2) #1, the values are G2 robust z-score -0.767; G2 cells, % of GMNN control -2.43; inactive.
Knock-down of OR5B2 (olfactory receptor family 5 subfamily B member 2) #2 resulted in: G2 robust z-score 0.143; G2 cells, % of GMNN control 3.98; inactive.
Against OR5B2 (olfactory receptor family 5 subfamily B member 2) #3, the values are G2 robust z-score 2.74; G2 cells, % of GMNN control 22.2; inactive.
C2CD4A (C2 calcium dependent domain containing 4A) #1 scored G2 robust z-score -0.368; G2 cells, % of GMNN control 0.379; inactive.
C2CD4A (C2 calcium dependent domain containing 4A) #2 showed G2 robust z-score 0.0689; G2 cells, % of GMNN control 3.45; inactive.
For C2CD4A (C2 calcium dependent domain containing 4A) #3 the deposit lists G2 robust z-score -0.793; G2 cells, % of GMNN control -2.61; inactive.
Knock-down of ERICH5 (glutamate rich 5) #1 resulted in: G2 robust z-score 0.186; G2 cells, % of GMNN control 4.28; inactive.
ERICH5 (glutamate rich 5) #2 gave G2 robust z-score -1; G2 cells, % of GMNN control -4.07; inactive.
Against ERICH5 (glutamate rich 5) #3 the deposit lists G2 robust z-score 0.2; G2 cells, % of GMNN control 4.38; inactive.
For PAK6-AS1 (PAK6 antisense RNA 1) #1, the values are G2 robust z-score 3.19; G2 cells, % of GMNN control 25.4; inactive.
After knock-down of PAK6-AS1 (PAK6 antisense RNA 1) #2, the screen gave G2 robust z-score 0.795; G2 cells, % of GMNN control 8.56; inactive.
Depletion of PAK6-AS1 (PAK6 antisense RNA 1) #3 resulted in: G2 robust z-score 0.666; G2 cells, % of GMNN control 7.65; inactive.

Reformatted: entries from further up
{"target":"ERICH5 (glutamate rich 5)","reagent":1,"G2 robust z-score":0.186,"G2 cells, % of GMNN control":4.28,"Outcome":"inactive"}
{"target":"ERICH5 (glutamate rich 5)","reagent":2,"G2 robust z-score":-1,"G2 cells, % of GMNN control":-4.07,"Outcome":"inactive"}
{"target":"ERICH5 (glutamate rich 5)","reagent":3,"G2 robust z-score":0.2,"G2 cells, % of GMNN control":4.38,"Outcome":"inactive"}
